Values from PubChem BioAssay AID1508588 (Peter MacCallum Cancer Centre, 2020)
The whole screen tested about 18,000 reagents; below is a random part of them. Over the whole deposit, 790 (4.4%) were called active. 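Calls rest on a combination of fold-change classes in drug and vehicle arms, not all shown here.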 No sequences are given here.

- Test: 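Which gene losses make BRAF-mutant melanoma cells more responsive to vemurafenib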 (primary screen)
- Cells: human WM266.4 melanoma cells (BRAF V600 mutant)
- Reagents: siRNA pool against human genes, 40 nM
- Time to read-out: 96 h from transfection to read-out
- Treatment: vemurafenib 300 nM (about IC25), added 48 h after transfection, for 48 h; comparison arm got DMSO vehicle only
- Measured: 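Ratios to non-targeting siRNA for cell gain, counted as DAPI nuclei after minus before drug and averaged over two replicates, and for absorbance-read medium lactate per cell; both binned into fold-change classes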
- Scale: cell gain with vemurafenib: higher = more cell gain than with non-targeting siRNA; lactate per cell with vemurafenib: higher = more lactate made per cell
- Hit rule: 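Enhancement is called by pairing each knock-down's vehicle-arm and drug-arm fold-change classes for viability or glycolysis; which class combinations qualify is not given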
- Calls: active = enhances vemurafenib effect; inactive = no enhancement seen

SYBU: cell gain with vemurafenib = 0.58; lactate per cell with vemurafenib = 1.56; outcome = inactive
FAU: cell gain with vemurafenib = 0.05; lactate per cell with vemurafenib = 0.88; outcome = inactive
TNFRSF21: cell gain with vemurafenib = 0.22; lactate per cell with vemurafenib = 1.29; outcome = inactive
FAXC: cell gain with vemurafenib = 0.45; lactate per cell with vemurafenib = 0.56; outcome = inactive
OAF: cell gain with vemurafenib = 0.24; lactate per cell with vemurafenib = 0.84; outcome = inactive
PLIN4: cell gain with vemurafenib = 0.79; lactate per cell with vemurafenib = 0.9; outcome = inactive
TSPYL1: cell gain with vemurafenib = 0.89; lactate per cell with vemurafenib = 0.78; outcome = inactive
TMEM69: cell gain with vemurafenib = 0.7; lactate per cell with vemurafenib = 0.45; outcome = inactive
TMEM138: cell gain with vemurafenib = 0.21; lactate per cell with vemurafenib = 0.56; outcome = inactive
MRPS28: cell gain with vemurafenib = 0.76; lactate per cell with vemurafenib = 0.86; outcome = inactive
DUX4L1: cell gain with vemurafenib = 0.58; lactate per cell with vemurafenib = 1.23; outcome = inactive
EDDM3B: cell gain with vemurafenib = 0.36; lactate per cell with vemurafenib = 0.7; outcome = inactive
TCF3: cell gain with vemurafenib = 0.61; lactate per cell with vemurafenib = 0.42; outcome = active
RSRP1: cell gain with vemurafenib = 0.39; lactate per cell with vemurafenib = 2.23; outcome = inactive
DOCK10: cell gain with vemurafenib = 0.44; lactate per cell with vemurafenib = 0.59; outcome = inactive
LINC02694: cell gain with vemurafenib = 0.94; lactate per cell with vemurafenib = 1.32; outcome = inactive
CALML4: cell gain with vemurafenib = 0.8; lactate per cell with vemurafenib = 0.94; outcome = inactive
SLC2A4RG: cell gain with vemurafenib = 0.33; lactate per cell with vemurafenib = 1.14; outcome = inactive
RWDD4: cell gain with vemurafenib = 0.39; lactate per cell with vemurafenib = 0.91; outcome = inactive
LYPD2: cell gain with vemurafenib = 0.26; lactate per cell with vemurafenib = 1.17; outcome = inactive
STK31: cell gain with vemurafenib = 0.45; lactate per cell with vemurafenib = 1.29; outcome = inactive
TAF10: cell gain with vemurafenib = 0.67; lactate per cell with vemurafenib = 0.58; outcome = inactive
DQX1: cell gain with vemurafenib = 0.6; lactate per cell with vemurafenib = 0.56; outcome = inactive
CLASP1: cell gain with vemurafenib = 0.76; lactate per cell with vemurafenib = 0.46; outcome = inactive
CCDC85B: cell gain with vemurafenib = 0.82; lactate per cell with vemurafenib = 0.86; outcome = inactive
SLC25A14: cell gain with vemurafenib = 0.29; lactate per cell with vemurafenib = 1.08; outcome = inactive
PROP1: cell gain with vemurafenib = 0.66; lactate per cell with vemurafenib = 0.46; outcome = inactive
USP36: cell gain with vemurafenib = 0.24; lactate per cell with vemurafenib = 0.59; outcome = inactive
BAD: cell gain with vemurafenib = 0.68; lactate per cell with vemurafenib = 0.6; outcome = active
ZFYVE26: cell gain with vemurafenib = 0.43; lactate per cell with vemurafenib = 0.75; outcome = inactive
TBL1Y: cell gain with vemurafenib = 0.31; lactate per cell with vemurafenib = 0.16; outcome = active
CTSH: cell gain with vemurafenib = 0.3; lactate per cell with vemurafenib = 0.78; outcome = inactive
RPS7: cell gain with vemurafenib = -0.04; lactate per cell with vemurafenib = 1.11; outcome = inactive
RDH10: cell gain with vemurafenib = 0.73; lactate per cell with vemurafenib = 1.3; outcome = inactive
RBP3: cell gain with vemurafenib = 0.51; lactate per cell with vemurafenib = 1.34; outcome = inactive
SLC32A1: cell gain with vemurafenib = 1.11; lactate per cell with vemurafenib = 0.6; outcome = inactive
EIF6: cell gain with vemurafenib = 0.34; lactate per cell with vemurafenib = 1.96; outcome = inactive
TRMT5: cell gain with vemurafenib = 0.82; lactate per cell with vemurafenib = 1.08; outcome = inactive
SYNPR: cell gain with vemurafenib = 0.63; lactate per cell with vemurafenib = 1.23; outcome = inactive
FBXO9: cell gain with vemurafenib = 0.05; lactate per cell with vemurafenib = 1.15; outcome = inactive

Entries listed so far whose target name begins with L or l (2):
LINC02694: cell gain with vemurafenib = 0.94; lactate per cell with vemurafenib = 1.32; outcome = inactive
LYPD2: cell gain with vemurafenib = 0.26; lactate per cell with vemurafenib = 1.17; outcome = inactive
